In PubChem BioAssay AID1508600 (Functional Genomics Laboratory (NCATS/FGL), 2020) one finds z-score data, which are given here for 107 sequences.

In all, about 53,000 sequences went through this assay and about 3,700 (7%) were called active.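 The calls were made as follows: active = gene knockdowns whose robust z-score for IL-1 alpha signal is at least 2 or at most -2, so actives lie on both sides; inactive = the rest.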 The list shows a part of the results.

The assay in a line: Components of the Cytosolic LPS Sensing Pathway: Gene Identification via Genome-wide siRNA Screen.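 Also: robust z of the log signal after scaling to non-targeting control siRNA wells of the plate.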 The following applies: RAW264.7 macrophages, IL-1a HTRF, actives lie on both sides, screened at 100 nM (by protocol), cells primed 5 h with Pam3CSK4 first. The method, boiled down:
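Cells (RAW264.7, 1×10^4 per well) were transfected with siRNA at 100 nM and cultured 48h at 37 degrees C. Pam3CSK4 was added for 5 hours; LipidA transfection followed for 24 hour. IL-1a was then measured by HTRF.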
For orientation: TR-FRET usually uses a lanthanide donor and a delayed reading to cut background.
As for GGACUUUGAACUACCGAAGTT against Usp54, the z-score was inactive: -0.0479.
In the case of GGUAGCAAAUUUCAAUCUUTT against Hipk1 it was inactive: 0.602.
For the sequence GCAGGAACGUGAGGACCAUTT against Snip1, the z-score was inactive: 0.842.
On to GGCACCUGUUAAAAAUGAATT against Prag1, for which the z-score was inactive: -0.771.
In the case of GGAAAGGAACAUAUUUGACTT against Gss it was inactive: 0.0774; in that of GGUCAUUCAAUACCAGAUATT against Cd48, inactive: 0.417; in that of CCGCAUACCUCUAAGGUAGTT against Cwc25, inactive: -0.681.
On to GCACUUUGAGAACACUAAUTT against Zfp9, for which the z-score is inactive: -1.58.
As for GGAACGUGCAAUGCUUGUUTT against Adm, the figure is inactive: 0.241; as for GGAAAUGUCAUGCUUUCAGTT against Vmn1r13, inactive: 0.126.
As for CCUUACCCUGUGUAUCUUUTT against Naa80, the figure is inactive: -0.0307; as for GGCUGCACCAGAAACAUUATT against Vezf1, inactive: -0.706.
As for GGGUACUUCUCAGGAAUAGTT against Nudt5, the figure is inactive: 0.981; as for CCUAAUCGAGAAUGAGUUATT against Speer2, inactive: -1.02; as for GCGAAUUGAACAGUUCUCATT against Cwf19l2, inactive: 0.0299.
In the case of CCUAGUGUGUGCUUUUCGGTT against Akr7a5, the z-score was inactive: -0.502.
With CCUCAUAGGCUUGACAAUUTT against Exoc2, the z-score is inactive: -0.0626.
As for GCCAUUCAAAAAUCAGCCGTT against Ddi2, the figure is active: -2.02; as for GGGAGGGAUUUAUGUCCUCTT against Slc6a2, inactive: 0.333.
In the case of GCUAUGUAUCUUUUGAGAUTT against Chst3 it was inactive: -0.0508; in that of CGAAUUCUCUUGGAACAAUTT against Cntn3, inactive: -1.19; in that of GGGAAGAAAGACUCAAACUTT against Dcdc2a, inactive: 0.919.
As for GGGACUCAAAAUCAAGAGATT against Mrps28, the figure is inactive: 0.206; as for CCUUAAACGACGAGAAGCATT against Hp, inactive: -1.47; as for GCUUCUUUUUGCUGAUGACTT against Vmn1r42, inactive: -0.53.
For GGACAUGAAGAAAAGCACCTT against Bin3, the z-score was inactive: -0.376.
Consider GGCAUCAUCCAAAAUUCCCTT against Amd1, for which the z-score is inactive: -1.89.
For GGCAUCAUCUCAGUCAUGUTT against Micos13, the z-score was inactive: 0.465.
As for GGACCUUGGGCAGAUUCAATT against Atp10d, the figure is inactive: 0.54.
As for GCUAGGAUGUCUGAAAGAGTT against Ccdc178, the figure is inactive: 0.266; as for GGCGGACAGAAAUUAUAGATT against Tnpo3, active: 3.19.
In the case of GCGAAUCCACUUAAUUCGATT against Abhd4 it was inactive: 1.35; in that of GGAACAGGAAAAAUGAACUTT against Cetn2, inactive: -1.07.
On to GGAAUUGGUAGACCACACCTT against Smr3a, for which the z-score is inactive: 0.121.
In the case of CCAUCUAUCAAAAGCAAAUTT against Reg1 it was inactive: -0.314.
In the case of CGAUGCUUACGACAUUGUUTT against Dusp6 it was inactive: -0.174; in that of CGAGAUUUCUAUUUCAGCATT against Mapre3, inactive: 0.222.
In the case of GGUCAGCCAGACCAUUUCUTT against Edc3 it was inactive: -1.27; in that of GGCUCUCUUGCUGUGGGUATT against Dll4, inactive: 1.95; in that of GGGCAUUAAGUACAAAAAGTT against Ap1m2, inactive: 0.261.
As for GGUCUAUGGAGACAUUAAATT against Ptprt, the z-score was inactive: 0.294.
In the case of CGAUUCCGUCAAAUUAAAGTT against Catsper2, the z-score is inactive: 0.156.
On to GGAGAAGUUCCCUAACAUGTT against Ppan, for which the z-score was inactive: -1.
As for CCACUCAUGAAGACGGAAGTT against Abat, the figure is inactive: -0.0609; as for GGCAAAGCUCUAAACGGGUTT against Cnih2, inactive: 1.21.
GGAAAACUUUAGCUACAAATT against Ppp4r4: the z-score is inactive: -0.231.
In the case of GGUCACGGAGAAACUAAAGTT against Ppme1, the z-score was inactive: 0.703.
Turning to GGCACACACCAUAUGGUAATT against Ldb1, the z-score is inactive: -0.176.
As for GGAUAGCUUGAUCAAUCUUTT against Cisd2, the figure is inactive: -0.13; as for GGGACUCCUUUAAAUUUCUTT against Pipox, inactive: -0.458.
In the case of GGAAGAAGCAGGUGAUUAATT against Grb14 it was inactive: -1.24; in that of GGAUCUUCUACUAUUGAUATT against Paqr5, inactive: 0.439.
As for GGGAUAGUGUUCCUUAUCUTT against Neu1, the figure is active: -2.6.
For CCACAGUGAGCCAUCGAUATT against Slfn8, the z-score was inactive: -0.301.
In the case of GGAAAGAAUCGAUUUAGACTT against Slc5a4a it was inactive: 1.31; in that of GCUCGCUAAAGUGAUUAAATT against Gm5533, inactive: 0.867.
As for CCGAUCUGAUAUAGUAGAATT against Stk31, the figure is active: 2.18; as for GCUAUACCAAGUGGAUAGUTT against Prkaa1, inactive: 1.39.
In the case of GGUCCAGCUCAUGAAACUUTT against Sik1 it was inactive: 0.147; in that of GGUUUUGCCUCCCAUAGUATT against Ssty1, inactive: 0.112.
For CCACAGUCCCAGUUUCAAGTT against Mcee, the z-score is inactive: -0.91.
In the case of GGAGAAAGUUGAACGUAUUTT against Cct2 it was active: -2.58; in that of GGAACUUUAUAAGGACUAUTT against Xlr4b, inactive: -0.621.
For the sequence GGUACUCUGUGGAUAUCCCTT against Rpl27, the z-score was inactive: -0.224.
In the case of GCGAAAGAAAGUUUUGCUGTT against Krit1 it was inactive: -0.0186; in that of GGAAUAGACUUGGAAUCUATT against Ccdc40, inactive: -0.486; in that of “CCUACAGACGGAUACCAGATT against 9930012K11Rik”, inactive: 0.844.
In the case of GGUUUUUCGAGUUUUUUCUTT against Msx1 it was inactive: 1.06; in that of GCGUAACUACUACAUGAAUTT against Ano9, active: -2.33.
As for CGCCAAUAUGGCCAUUGACTT against Ikzf2, the figure is inactive: -0.304.
As to GGUGUGGCUGAUGUAUAAATT against Syt7, the z-score is inactive: 0.378.
As for GGCGAGAGAUGUUCGACAATT against Ubr2, the figure is inactive: 0.747; as for CCAUUGUCACUCCUAGUGUTT against Olfr1361, inactive: 1.03.
Take GGCAGAAAAUAAUUACUUGTT against Sh3d19: the z-score is inactive: 1.28.
In the case of GGUACUUGAAGACUUGGAGTT against Rasal1 it was inactive: 3e-05; in that of GGAAAGAAUAUGAGAAUGCTT against Reck, inactive: -1.13.
In the case of GCACAGUAGUGAAAGUGAATT against Hspa14 it was inactive: -0.0241; in that of GCAUAACUCAUGAUCUCCUTT against Oit3, inactive: 0.0243; in that of GGACUUGUCUGGAUUUUGGTT against Mal2, inactive: 0.0138.
In the case of GGUCAGAGUGCCUCUUGAATT against Slc7a5 it was inactive: -0.8; in that of CCCUGAAGAAGUUUGAUACTT against Gcfc2, inactive: 0.856.
For the sequence “GCUUACUAAUGCGGAUUACTT against 5330438D12Rik”, the z-score was active: -2.41.
As for GGACGGUCUCAACUUUUCCTT against Icam2, the figure is inactive: 0.513; as for GUUAAGAUUUAGGCAUCAATT against Olfr805, inactive: 0.125.
As for GGAGAUGCCUAGUAUGAGCTT against Onecut2, the figure is inactive: 0.0984.
In the case of GGCCAAUUUCUUCACUUCUTT against Ints11 it was inactive: -0.809; in that of GGAGAAGAAUUCAUUUCUCTT against Kat7, inactive: -1.19.
Turning to GGUACAAUCGAAAGUACUUTT against Spns1, the z-score is inactive: -0.501.
As for GGUCAAGACGGUCUACCGATT against Rab3d, the figure is inactive: -0.571; as for CCAUGAAGUCCCAUGUUAUTT against Tpo, inactive: -0.0198; as for GGGAAAUCUCUGAUUACAUTT against Eif2ak3, inactive: 0.382.
In the case of GGCUCCUGGCUUUAUCCUGTT against Olfr107 it was inactive: 0.13.
Turning to GGCUUUCUUCUAGAAUGAGTT against Nptx1, the z-score was inactive: -0.938.
As for GGCCUCCAAUUUUCAAGUUTT against Pnliprp1, the figure is inactive: 0.0372.
For “GGGCUUAAAUCGGUUUGAATT against 2810006K23Rik”, the z-score was inactive: 0.263.
As for CCUAUUUGGUUCCUGAUGGTT against Gm1968, the figure is inactive: 0.519; as for GGAUUAAACUGCAUAACAGTT against Ctsq, inactive: 0.361; as for GGCCGACUUGAUCAAUAACTT against Hsp90aa1, inactive: -0.164.
In the case of GCGCACAAGCCUUACUAAATT against Zfp560 it was inactive: 0.0854; in that of GGGAUGUGCAAUUAUAUCUTT against Muc6, inactive: 0.142.
Turning to CCUUAAGACCGGAUUUUUUTT against Cyp4f14, the z-score was inactive: 0.64.
In the case of GCUCCCACUUCACUUCUGUTT against Olfr965 it was inactive: 0.51; in that of CGGCUCUUCAAUAGAGCCUTT against Olfr123, inactive: -0.265; in that of GGGCAACAACAAUGUCUUATT against Islr, inactive: 0.674.
As for GGCUUUUGAAUACGAGUUUTT against Tmem63a, the figure is inactive: -0.483.
As for GGCUUUCCCAAGCUAAGAGTT against Maff, the figure is inactive: 1.32; as for GGAUACCAAGAUUCCAAAUTT against Pik3r4, active: 2.19.
